# This is one part of the list. The data scatter; read single values as rough.
# The chains behind the UniProt entries cited, without tags or fusion partners. Where a name states a change or a piece, a line headed by the entry shows the natural chain unless it says otherwise. Residues count along the entry.
# UniProt O75928, whole entry, looked up: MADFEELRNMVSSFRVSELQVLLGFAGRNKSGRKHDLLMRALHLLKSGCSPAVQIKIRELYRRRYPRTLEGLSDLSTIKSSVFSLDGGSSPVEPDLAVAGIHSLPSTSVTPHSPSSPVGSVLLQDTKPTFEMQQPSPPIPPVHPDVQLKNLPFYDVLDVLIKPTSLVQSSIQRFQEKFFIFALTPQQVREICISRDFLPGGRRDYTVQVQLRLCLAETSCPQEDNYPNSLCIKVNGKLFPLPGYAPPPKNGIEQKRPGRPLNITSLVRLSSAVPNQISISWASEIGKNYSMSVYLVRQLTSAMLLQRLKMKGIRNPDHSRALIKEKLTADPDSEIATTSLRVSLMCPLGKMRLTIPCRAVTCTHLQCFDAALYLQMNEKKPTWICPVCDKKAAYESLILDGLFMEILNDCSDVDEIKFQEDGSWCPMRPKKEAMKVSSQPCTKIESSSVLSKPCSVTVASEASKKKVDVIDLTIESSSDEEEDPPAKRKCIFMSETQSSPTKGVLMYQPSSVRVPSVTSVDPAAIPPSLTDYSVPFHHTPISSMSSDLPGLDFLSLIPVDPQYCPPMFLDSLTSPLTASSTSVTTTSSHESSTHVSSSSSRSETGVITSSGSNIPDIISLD
# UniProt O00329: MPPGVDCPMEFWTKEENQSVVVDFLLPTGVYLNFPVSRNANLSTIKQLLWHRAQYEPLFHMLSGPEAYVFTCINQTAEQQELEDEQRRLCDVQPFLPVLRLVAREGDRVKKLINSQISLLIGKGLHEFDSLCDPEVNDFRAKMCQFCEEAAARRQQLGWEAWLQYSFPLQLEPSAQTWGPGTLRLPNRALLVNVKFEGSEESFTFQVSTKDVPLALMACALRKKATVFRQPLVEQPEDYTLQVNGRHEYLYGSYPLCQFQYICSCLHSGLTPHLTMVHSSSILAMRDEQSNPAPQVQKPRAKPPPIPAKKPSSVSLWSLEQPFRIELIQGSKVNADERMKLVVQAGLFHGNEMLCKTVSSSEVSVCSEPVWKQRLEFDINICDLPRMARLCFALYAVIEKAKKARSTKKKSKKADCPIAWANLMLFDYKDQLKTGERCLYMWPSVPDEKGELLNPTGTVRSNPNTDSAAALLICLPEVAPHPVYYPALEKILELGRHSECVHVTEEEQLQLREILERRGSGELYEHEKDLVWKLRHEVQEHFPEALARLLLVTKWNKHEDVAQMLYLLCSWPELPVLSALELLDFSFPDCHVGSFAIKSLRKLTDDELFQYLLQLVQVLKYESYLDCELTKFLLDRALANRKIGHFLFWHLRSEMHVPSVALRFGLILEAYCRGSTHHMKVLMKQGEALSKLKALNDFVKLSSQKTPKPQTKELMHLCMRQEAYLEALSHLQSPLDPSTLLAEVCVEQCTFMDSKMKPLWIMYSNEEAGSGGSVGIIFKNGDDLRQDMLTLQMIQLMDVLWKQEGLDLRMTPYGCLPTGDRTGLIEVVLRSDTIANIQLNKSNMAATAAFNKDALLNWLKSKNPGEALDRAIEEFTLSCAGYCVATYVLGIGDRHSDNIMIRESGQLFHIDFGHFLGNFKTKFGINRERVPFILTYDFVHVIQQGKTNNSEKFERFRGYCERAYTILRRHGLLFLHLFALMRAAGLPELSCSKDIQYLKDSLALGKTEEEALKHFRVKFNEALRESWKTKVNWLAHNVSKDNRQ
# UniProt P53350, 365-392: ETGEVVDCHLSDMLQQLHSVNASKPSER
# UniProt Q86UU1: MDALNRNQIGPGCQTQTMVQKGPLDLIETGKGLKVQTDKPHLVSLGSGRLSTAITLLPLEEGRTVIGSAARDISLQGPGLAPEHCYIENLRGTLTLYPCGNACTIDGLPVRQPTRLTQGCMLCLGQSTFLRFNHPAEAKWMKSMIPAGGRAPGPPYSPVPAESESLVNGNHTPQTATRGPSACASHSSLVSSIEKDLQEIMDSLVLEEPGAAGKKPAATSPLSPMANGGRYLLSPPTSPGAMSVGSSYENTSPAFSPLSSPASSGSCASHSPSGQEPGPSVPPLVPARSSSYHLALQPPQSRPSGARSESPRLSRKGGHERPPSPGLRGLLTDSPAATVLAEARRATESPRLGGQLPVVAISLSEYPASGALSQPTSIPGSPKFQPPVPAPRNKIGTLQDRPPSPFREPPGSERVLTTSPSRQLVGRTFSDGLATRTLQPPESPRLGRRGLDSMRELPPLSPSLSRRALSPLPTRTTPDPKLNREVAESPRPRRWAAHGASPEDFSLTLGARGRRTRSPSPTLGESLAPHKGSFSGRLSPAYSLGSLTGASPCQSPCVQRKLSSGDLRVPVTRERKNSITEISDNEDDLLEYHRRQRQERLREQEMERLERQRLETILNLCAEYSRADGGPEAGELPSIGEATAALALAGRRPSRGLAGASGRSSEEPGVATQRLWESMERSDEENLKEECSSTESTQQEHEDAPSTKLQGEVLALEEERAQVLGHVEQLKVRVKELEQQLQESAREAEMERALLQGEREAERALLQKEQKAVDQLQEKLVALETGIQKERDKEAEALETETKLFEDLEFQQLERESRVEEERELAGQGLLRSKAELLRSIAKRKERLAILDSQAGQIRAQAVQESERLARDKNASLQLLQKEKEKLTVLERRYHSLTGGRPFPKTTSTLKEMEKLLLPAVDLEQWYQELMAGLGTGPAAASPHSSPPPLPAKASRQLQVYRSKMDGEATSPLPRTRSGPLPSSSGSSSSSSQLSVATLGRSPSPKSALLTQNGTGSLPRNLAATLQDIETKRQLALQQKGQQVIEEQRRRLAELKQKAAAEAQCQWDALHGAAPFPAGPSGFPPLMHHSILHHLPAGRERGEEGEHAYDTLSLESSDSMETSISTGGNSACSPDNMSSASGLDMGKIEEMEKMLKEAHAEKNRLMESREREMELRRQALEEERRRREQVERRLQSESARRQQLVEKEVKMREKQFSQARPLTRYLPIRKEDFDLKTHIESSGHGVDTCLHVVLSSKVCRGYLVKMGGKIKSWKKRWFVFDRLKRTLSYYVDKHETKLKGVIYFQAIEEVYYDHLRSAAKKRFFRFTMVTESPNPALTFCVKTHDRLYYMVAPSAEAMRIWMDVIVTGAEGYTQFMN
# UniProt Q9BUL5: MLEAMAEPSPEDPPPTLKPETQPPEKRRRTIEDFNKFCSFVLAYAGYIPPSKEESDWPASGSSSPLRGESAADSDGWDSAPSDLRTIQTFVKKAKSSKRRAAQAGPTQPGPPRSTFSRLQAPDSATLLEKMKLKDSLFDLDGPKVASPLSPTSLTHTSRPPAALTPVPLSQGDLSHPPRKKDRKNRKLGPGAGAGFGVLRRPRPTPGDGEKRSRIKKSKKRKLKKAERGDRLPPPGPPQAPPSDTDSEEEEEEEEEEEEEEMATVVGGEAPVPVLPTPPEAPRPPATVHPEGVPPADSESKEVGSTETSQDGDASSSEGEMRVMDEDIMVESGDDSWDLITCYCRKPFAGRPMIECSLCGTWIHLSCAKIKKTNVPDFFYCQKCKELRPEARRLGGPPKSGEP
# UniProt Q92576: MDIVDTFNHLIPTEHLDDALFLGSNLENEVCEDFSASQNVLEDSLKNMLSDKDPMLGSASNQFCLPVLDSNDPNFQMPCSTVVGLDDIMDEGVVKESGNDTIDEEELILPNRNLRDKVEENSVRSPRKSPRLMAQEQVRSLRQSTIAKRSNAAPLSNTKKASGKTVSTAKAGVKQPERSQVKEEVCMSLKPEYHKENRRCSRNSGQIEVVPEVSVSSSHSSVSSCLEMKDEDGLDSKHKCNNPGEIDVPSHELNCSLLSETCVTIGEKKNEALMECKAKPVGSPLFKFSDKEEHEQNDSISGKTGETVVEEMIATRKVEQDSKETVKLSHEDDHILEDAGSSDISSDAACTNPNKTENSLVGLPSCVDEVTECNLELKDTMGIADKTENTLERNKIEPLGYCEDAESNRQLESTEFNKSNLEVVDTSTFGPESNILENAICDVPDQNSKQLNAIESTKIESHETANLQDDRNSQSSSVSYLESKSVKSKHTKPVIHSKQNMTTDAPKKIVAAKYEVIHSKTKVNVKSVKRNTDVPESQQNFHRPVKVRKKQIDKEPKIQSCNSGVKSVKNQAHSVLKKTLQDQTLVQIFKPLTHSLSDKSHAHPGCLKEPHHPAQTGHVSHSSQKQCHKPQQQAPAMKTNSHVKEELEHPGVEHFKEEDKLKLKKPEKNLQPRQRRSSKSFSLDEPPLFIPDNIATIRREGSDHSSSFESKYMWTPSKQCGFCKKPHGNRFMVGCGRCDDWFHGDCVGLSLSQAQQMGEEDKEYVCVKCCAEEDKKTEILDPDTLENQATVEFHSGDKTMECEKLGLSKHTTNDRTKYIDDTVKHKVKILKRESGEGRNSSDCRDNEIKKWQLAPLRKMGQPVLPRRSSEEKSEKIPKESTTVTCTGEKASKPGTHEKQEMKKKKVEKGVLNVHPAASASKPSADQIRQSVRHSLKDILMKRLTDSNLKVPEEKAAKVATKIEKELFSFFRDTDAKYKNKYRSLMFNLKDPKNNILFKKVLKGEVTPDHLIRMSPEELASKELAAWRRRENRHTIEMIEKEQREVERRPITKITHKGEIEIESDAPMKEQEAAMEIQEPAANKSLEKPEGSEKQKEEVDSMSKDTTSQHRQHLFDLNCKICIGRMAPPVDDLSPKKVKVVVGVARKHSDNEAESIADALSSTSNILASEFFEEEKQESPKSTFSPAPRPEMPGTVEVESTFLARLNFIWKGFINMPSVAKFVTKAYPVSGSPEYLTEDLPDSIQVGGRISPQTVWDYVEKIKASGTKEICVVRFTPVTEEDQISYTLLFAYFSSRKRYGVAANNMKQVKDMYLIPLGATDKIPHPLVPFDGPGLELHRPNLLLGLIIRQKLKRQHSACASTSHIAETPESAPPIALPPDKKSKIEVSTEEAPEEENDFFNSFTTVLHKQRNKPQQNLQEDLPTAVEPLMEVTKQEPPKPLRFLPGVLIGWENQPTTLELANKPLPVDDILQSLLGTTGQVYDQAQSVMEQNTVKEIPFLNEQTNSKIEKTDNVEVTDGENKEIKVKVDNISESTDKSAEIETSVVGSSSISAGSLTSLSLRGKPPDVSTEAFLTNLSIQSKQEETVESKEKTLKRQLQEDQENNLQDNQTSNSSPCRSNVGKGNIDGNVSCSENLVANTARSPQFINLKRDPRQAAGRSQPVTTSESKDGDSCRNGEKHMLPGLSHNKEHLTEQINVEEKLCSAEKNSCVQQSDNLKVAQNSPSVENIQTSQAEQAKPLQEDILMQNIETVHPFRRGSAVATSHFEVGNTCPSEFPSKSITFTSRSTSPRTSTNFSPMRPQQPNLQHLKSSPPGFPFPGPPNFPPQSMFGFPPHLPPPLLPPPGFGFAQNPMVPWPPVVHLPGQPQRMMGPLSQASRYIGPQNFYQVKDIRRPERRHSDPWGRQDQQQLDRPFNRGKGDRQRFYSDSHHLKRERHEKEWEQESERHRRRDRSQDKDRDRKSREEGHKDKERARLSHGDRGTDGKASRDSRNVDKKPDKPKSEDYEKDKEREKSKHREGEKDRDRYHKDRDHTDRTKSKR
# UniProt P42336, whole entry, looked up: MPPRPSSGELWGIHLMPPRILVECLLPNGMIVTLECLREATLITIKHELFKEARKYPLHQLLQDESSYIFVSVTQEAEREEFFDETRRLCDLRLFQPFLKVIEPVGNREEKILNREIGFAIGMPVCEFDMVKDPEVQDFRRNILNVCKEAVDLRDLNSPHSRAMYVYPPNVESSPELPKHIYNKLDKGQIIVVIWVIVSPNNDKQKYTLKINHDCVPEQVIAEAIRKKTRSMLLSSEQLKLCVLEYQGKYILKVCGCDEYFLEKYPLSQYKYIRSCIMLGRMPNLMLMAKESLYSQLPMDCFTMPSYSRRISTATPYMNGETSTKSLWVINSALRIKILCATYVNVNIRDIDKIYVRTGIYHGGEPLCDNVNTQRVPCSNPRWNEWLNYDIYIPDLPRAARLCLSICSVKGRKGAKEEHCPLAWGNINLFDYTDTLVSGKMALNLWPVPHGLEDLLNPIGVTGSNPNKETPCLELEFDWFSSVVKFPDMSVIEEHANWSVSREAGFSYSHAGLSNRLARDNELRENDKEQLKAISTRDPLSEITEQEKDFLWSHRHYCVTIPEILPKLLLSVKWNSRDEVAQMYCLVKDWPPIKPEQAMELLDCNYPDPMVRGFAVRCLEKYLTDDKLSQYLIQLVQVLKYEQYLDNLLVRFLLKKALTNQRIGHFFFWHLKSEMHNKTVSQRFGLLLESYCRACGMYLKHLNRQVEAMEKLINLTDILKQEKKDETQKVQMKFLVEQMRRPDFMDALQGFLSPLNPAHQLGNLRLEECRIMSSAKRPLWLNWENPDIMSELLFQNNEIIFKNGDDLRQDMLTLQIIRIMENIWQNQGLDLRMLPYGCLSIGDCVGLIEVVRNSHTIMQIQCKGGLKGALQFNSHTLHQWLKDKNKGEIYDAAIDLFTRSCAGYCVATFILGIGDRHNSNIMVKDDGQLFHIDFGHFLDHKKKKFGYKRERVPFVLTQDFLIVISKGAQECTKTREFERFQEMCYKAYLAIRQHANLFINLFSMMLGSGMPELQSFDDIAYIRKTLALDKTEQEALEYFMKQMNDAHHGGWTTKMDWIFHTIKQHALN
# Compound: ClCC(=O)N[C@H]1CCCc2ccccc12
# Test: log2 mean competition ratio of IA-DTB cysteine labelling (DMSO/compound) (log2 ratio); higher = stronger cysteine engagement by compound
# Conditions: 200 µM; treatment time: 4 h; cell line lysate: HEK293T
# Experimental: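 IA-DTB competitive cysteine chemoproteomics in HEK293T RIPA lysate. Lysates were treated with compound 29 or 30 at 50 or 200 µM for 4 h, then IA-DTB (500 µM, 1 h), trypsin-digested, NeutrAvidin-enriched and analysed by diaPASEF. Competition ratio = intensity DMSO / intensity compound (n=4 treated, n=64 DMSO); binding: mean log2 CR ≥ 1 and p ≤ 0.05 plus QC filters. Target is the cysteine site.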
row,Target,log2 mean competition ratio
1,PIAS2 C441 (UniProt O75928),0.136
2,PLS3 C167,0.313
3,PM20D2 C303 (UniProt Q8IYS1),0.0552
4,PIEZO1 C383 (UniProt Q92508),-0.361
5,PJA1 C241,0.0929
6,PHKG2 C176 (UniProt P15735),0.248
7,PHRF1 C710 (UniProt Q9P1Y6),0.238
8,POLG C1130,0.155
9,PIK3CD C90 (UniProt O00329),-0.162
10,PLAT C419,0.225
11,PLK1 C372 (UniProt P53350),0.0573
12,PMPCB C485 (UniProt O75439),0.143
13,PLCG2 C791 (UniProt P16885),0.15
14,POLR1F C193,-0.293
15,PITHD1 C187 (UniProt Q9GZP4),0.0285
16,PIK3C2A C317 (UniProt O00443),-0.166
17,PHLDB1 C13 (UniProt Q86UU1),-0.327
18,PHF23 C381 (UniProt Q9BUL5),0.0955
19,PLEKHH2 C257 (UniProt E5RGK1),0.409

row,Target,log2 mean competition ratio
1,PITRM1 C556 (UniProt Q5JRX3),-0.0173
2,PKNOX1 C109 (UniProt P55347),0.106
3,PIK3CD C366 (UniProt O00329),0.337
4,PHF3 C1631 (UniProt Q92576),0.267
5,PITX2 C152,0.338
6,POLR1A C582 (UniProt O95602),0.0182
7,PLEKHF2 C129 (UniProt Q9H8W4),0.0514
8,PIMREG C104 (UniProt Q9BSJ6),-0.0481
9,PHKA1 C844 (UniProt P46020),0.0129
10,POGZ C1230 (UniProt Q7Z3K3),0.332
11,PIMREG C47 (UniProt Q9BSJ6),-0.292
12,POLQ C1237 (UniProt O75417),-0.00524
13,PI4K2A C320 (UniProt Q9BTU6),-0.0718
14,PLPBP C15 (UniProt O94903),0.139
15,PLD6 C226 (UniProt Q8N2A8),-0.013
16,PIK3CA C862 (UniProt P42336),-0.183
17,PML C189 (UniProt P29590),-0.0687
18,POLA1 C514 (UniProt P09884),0.351

# Another view of some results above:
row	Target	log2 mean competition ratio
12	POLQ C1237 (UniProt O75417)	-0.00524
13	PI4K2A C320 (UniProt Q9BTU6)	-0.0718
14	PLPBP C15 (UniProt O94903)	0.139

# — the supplement of paper PMC11732987, “Enantioselective OTUD7B fragment discovery through chemoproteomics screening and high-throughput optimisation” (Communications Chemistry, 2025)
